In publication PMC5770445:
Results are given in words; binding and its absence hold for the method and conditions named. Binding seen in cells or lysates may run through a third protein. Here binding means that the protein was enriched with, or labelled near, the bait; the list need not be complete.

Target: His-CSK29544_02616 (His×6-tagged CSK29544_02616 product, Labp) (C. sakazakii)
Experiment: affinity purification with mass spectrometry; ligand fishing: 1 mg His-CSK29544_02616 as bait mixed with cell lysate of ΔCSK29544_02616, Ni-NTA resin, 4 °C, 1 h; washed with 20 mM Tris-Cl, 300 mM NaCl, 10 mM imidazole, pH 8.0; eluted with 250 mM imidazole; band cut from SDS-PAGE gel, LC-MS/MS; only the target purified

B1: LpxA (UDP-GlcNAc acyltransferase), endogenous (enzyme, UniProt A7MI18 1-262)
chain: MIDKTAFIHPTAIVEEGAVIGANAHIGPFCIVGPDVKIGEGTVLKSHVVVNGHTTIGRDNEIYQFASIGEVNQDLKYAGEPTRVEIGDRNRIRESVTIHRGTAQGGGLTKVGSDNLLMINAHVAHDCTVGNRCILANNATLAGHVSVDDFAIIGGMTAVHQFCIIGAHVMVGGCSGVAQDVPPYVIAQGNHATPFGVNIEGLKRRGFSKEALHAIRNAYKLLYRSGKTLDEVKPEIAEIAAKHPEVQPFYDFFARSTRGLIR
  binding: binds
